Among the data in PubChem BioAssay AID2685 (National Center for Advancing Translational Sciences (NCATS), 2010) are AC50 and cell number change values, retold here.

A short description of the assay: qHTS Assay for Lipid Storage Modulators in Drosophila S3 Cells.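 As to cell number change: cells counted by Cell Tracker Red CMTPX staining in the red channel.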 Conditions: BODIPY lipid droplet fluorescence, 18-24 h; for cell number change: measured here: cell count max response, cells fed with added oleic acid. An outline of the steps:
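Drosophila S3 cells got compounds at several concentrations plus oleic acid (400 uM solution). Laser-scanning cytometry with 488 nm excitation read lipid droplets at 500-530 nm and cells at 575-640 nm. Percent activity was relative to 20 uM Triacsin C.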
On the technique in general: qHTS replaces the single test concentration by a dilution series.

The mark [1] stands for this setting: measured here: lipid fluorescence (Fed channel) AC50, cells fed with added oleic acid.
[2] abbreviates: measured here: cell number channel AC50, cells fed with added oleic acid.

Some of the results follow. The main result of the screen is listed elsewhere. These columns were measured beside it and carry no call. The list favours compounds with an active or inconclusive main result. Potencies come from curve fits of mixed quality, noted in brackets.

As to `O=C(N/N=C/c1ccco1)c1ccccc1OCc1ccc(Br)cc1`, under setting [1], the AC50 (as a rule, the midpoint of the concentration-response curve, whichever way the signal moves) is 2.31 µM [rising, single point].

For the compound `Cc1c(C(=S)Nc2ccccc2)cnn1-c1ccc([N+](=O)[O-])cc1`, the cell number change was -10.5%. For the same compound, the AC50 under setting [1] was 0.411 µM [rising, single point].

For `COc1ccccc1NS(=O)(=O)c1cccc(C(=O)N/N=C/c2c(CO)cnc(C)c2O)c1`, the cell number change came out at 5.83%. Moreover, the AC50 under setting [1] is 0.58 µM [rising, full curve, poor fit].

With `CCNS(=O)(=O)c1ccc(OC)c(C(=O)NC2CCCCC2)c1`, the cell number change is -27.9%.

As to `COc1ccc(NS(=O)(=O)c2ccc(NC(C)=O)cc2)cc1OC`, the AC50 under setting [1] was 29.1 µM [falling, single point].

As to `CCC(O)CC(C(=O)NNc1ccccc1)C(=O)NNc1ccccc1` (stereo unspecified), the cell number change was 21.8%.

As for `COc1cc(/C=N/NC(=O)CCN2CCN(C)CC2)cc2c1OCO2`, the cell number change is 6.49%. Besides, the AC50 under setting [1] is 6.51 µM [falling, single point].

On to `CC(=O)Oc1c(/C=C(\C#N)C(N)=O)[nH]c2ccccc12`, for which the cell number change is -65.3%. Moreover, the AC50 under setting [2] was 18.4 µM [falling, single point]. Besides, the AC50 under setting [1] was 20.6 µM [falling, single point].

Turning to `CCC(=O)N/N=C/c1ccc(-c2ccc(Cl)cc2)o1`, the cell number change amounted to 6.03%. Besides, the AC50 under setting [1] was 0.13 µM [falling, full curve, poor fit].

Take `O=C(CN(CC1CCCO1)C(=O)CNS(=O)(=O)c1ccc(Cl)cc1)NC1CCCCC1` (stereo unspecified): the AC50 under setting [1] was 4.11 µM [rising, single point].

As for `O=S(=O)(Nc1nc2c(s1)CCCC2)c1ccc(F)cc1`, the cell number change came out at 26.2%. Besides, under setting [1], the AC50 was 29.1 µM [rising, single point].

Turning to `COc1ccc(CNC(=O)C(C)N(Cc2ccco2)C(=O)c2snc(C(N)=O)c2N)cc1` (stereo unspecified), the cell number change was found to be 35%. Further, the half-maximal activity concentration (AC50) under setting [2] was 2.59 µM [rising, full curve]. Under setting [1], the half-maximal activity concentration (AC50) is 0.517 µM [rising, partial curve].

Consider `CCCCN(N=Nc1nonc1OC)c1nonc1OC`, for which the cell number change stood at 32.6%. Under setting [1], the concentration at half-maximal activity (AC50) was 7.31 µM [rising, partial curve].

Take `O=C(/C=C/c1cn(CC(O)CN2CCCCC2)c2ccccc12)c1cccs1` (stereo unspecified): the cell number change was -9.03%.

`COc1ccc(C(O)(CCN2CCOCC2)c2ccccc2)cc1` (stereo unspecified): the cell number change came out at 0.185%. Moreover, under setting [1], the AC50 is 7.31 µM [rising, partial curve].

For `O=C(NCc1ccco1)C(=O)N1CCCC1`, the cell number change is -13.3%. Also, the AC50 under setting [1] was 25.9 µM [falling, single point].

With `CC12CCC(=O)N1C(C(=O)NCCN1C(=O)S/C(=C\c3ccccc3F)C1=O)CS2` (stereo unspecified), the cell number change was -3.49%. Also, under setting [1], the concentration at half-maximal activity (AC50) is 23.1 µM [falling, single point].

With `O=C(COc1nncc2ccccc12)NCC(F)(F)F`, under setting [2], the AC50 was 0.0058 µM [falling, full curve, poor fit].
